Reference: PubChem BioAssay AID1345085 (National Center for Advancing Translational Sciences (NCATS), 2018)
The inconclusive results got no clear call from the source; some entries with a clear call stand among them for comparison. A potency beside an inconclusive call is a rough fit, not a confirmed value. Active and inactive are the calls of the source. Calls follow the shape of the dose curve; as a rule, active = well fitted cell-killing curve with a large enough effect; inconclusive = small, poorly fitted or top-dose-only effect, or effect the other way; inactive = no such curve, though single readings can be large or run the other way.

Tested on: JEG-3
Assay: Confirmatory qHTS for gynecologic anti-cancer compounds from libraries of approved drugs and bioactive compounds; also: nearly all actives have a fitted effect of over 55% in size
Settings: gynecologic cancer cell panel viability, ATPlite luminescence, 48 h; series mostly up to 57.6 µM
How it was run: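 Seeding 1,000 cells per well preceded overnight (16 h) attachment, after which 48 h drug treatment across 57.5 uM–0.977 nM (11 points) was applied. Remaining cellular ATP, detected by ATPlite luminescence, defined IC50.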
Potency is read from the fitted curve at half-maximal effect.

SMILES	Potency
CC[C@@]1(O)C(=O)OCc2c1cc1n(c2=O)Cc2cc3c(CN(C)C)c(O)ccc3nc2-1	active: 1.09 µM
C[C@@H](Oc1cc(-c2cnn(C3CCNCC3)c2)cnc1N)c1c(Cl)ccc(F)c1Cl	active: 21.7 µM
CCCS(=O)c1ccc2nc(NC(=O)OC)[nH]c2c1 (stereo unspecified)	inconclusive: 38.5 µM [cytotoxic, partial curve, poor fit]
CCN1CCN(Cc2ccc(-c3cc4c(NC(C)c5ccccc5)ncnc4[nH]3)cc2)CC1 (stereo unspecified)	inconclusive: 38.5 µM [cytotoxic, partial curve, poor fit]
COc1c(C)c2c(c(O)c1C/C=C(\C)CCC(=O)O)C(=O)OC2	inconclusive: 6.11 µM [cytotoxic, full curve]
CN(c1nccc(=O)[nH]1)C1CCN(c2nc3ccccc3n2Cc2ccc(F)cc2)CC1	inconclusive: 0.485 µM [rising, partial curve, poor fit]
O=C1Cc2cc(CCN3CCN(c4nsc5ccccc45)CC3)c(Cl)cc2N1	inconclusive: 24.3 µM [cytotoxic, partial curve, poor fit]
OCc1ccc(-c2ccc(-c3ccc(CO)s3)o2)s1	inactive
CC(C)n1c(/C=C/[C@@H](O)C[C@@H](O)CC(=O)O)c(-c2ccc(F)cc2)c2ccccc21	inconclusive: 12.2 µM [cytotoxic, single point]
Cc1cc(Nc2cc(N3CCN(C)CC3)nc(Sc3ccc(NC(=O)C4CC4)cc3)n2)n[nH]1	inconclusive: 48.5 µM [cytotoxic, single point]
CCS(=O)(=O)c1cccc(-c2cc(C(=O)NC3CCN(C)CC3)c(C)c3[nH]c4ncc(C)cc4c23)c1	active: 2.67 µM
CCCCN(CCCC)C(=O)CN1C[C@H](c2ccc3c(c2)OCO3)[C@@H](C(=O)O)[C@@H]1c1ccc(OC)cc1	inactive
Cc1ccc(C(N)=O)cc1Nc1nccc(-c2cn(C(C)C)c3cnccc23)n1	active: 7.69 µM
CCCCN(CCCC)CC(O)c1cc(Cl)cc2c1-c1ccc(Cl)cc1/C2=C/c1ccc(Cl)cc1 (stereo unspecified)	inactive
COc1cc(C(=O)N2CCC(N3CCN(C)CC3)CC2)ccc1Nc1ncc2c(n1)N(C)c1ccccc1C(=O)N2C	inconclusive: 21.7 µM [cytotoxic, partial curve]
CN(C)CCC(CSc1ccccc1)Nc1ccc(S(=O)(=O)NC(=O)c2ccc(N3CCN(Cc4ccccc4-c4ccc(Cl)cc4)CC3)cc2)cc1[N+](=O)[O-] (stereo unspecified)	inconclusive: 17.2 µM [cytotoxic, partial curve]
CN(C[C@@H]1COCCO1)S(=O)(=O)Nc1ccc2ccc3ncc(-c4cnn(C)c4)cc3c(=O)c2c1	inactive
Cc1nc(Nc2ncc(C(=O)Nc3c(C)cccc3Cl)s2)cc(N2CCN(CCO)CC2)n1	inconclusive: 8.63 µM [rising, partial curve]

SMILES	Potency
CN1CCN(c2ccc(OC(F)(F)F)c(Nc3ncc4c(n3)-c3c(c(C(N)=O)nn3CCO)CC4)c2)CC1	inconclusive: 0.122 µM [cytotoxic, full curve]
CN(Cc1cnc2nc(N)nc(N)c2n1)c1ccc(C(=O)N[C@@H](CCC(=O)O)C(=O)O)cc1	inconclusive: 43.2 µM [rising, single point]
CC(C)C[C@H](NC(=O)[C@H](CCc1ccccc1)NC(=O)CN1CCOCC1)C(=O)N[C@@H](Cc1ccccc1)C(=O)N[C@@H](CC(C)C)C(=O)[C@@]1(C)CO1	active: 17.2 µM
Cn1cc(-c2ccc3ncc(Cc4ccc5ncccc5c4)n3n2)cn1	inactive
CC(C)[C@@H](CS(=O)(=O)C(C)C)N1C(=O)[C@@](C)(CC(=O)O)C[C@H](c2cccc(Cl)c2)[C@H]1c1ccc(Cl)cc1	inconclusive: 1.53 µM [cytotoxic, full curve]
COC(=O)c1ccc2c(C(=Nc3ccc(N(C)C(=O)CN4CCN(C)CC4)cc3)c3ccccc3)c(O)[nH]c2c1	inactive
Nc1ncnc2c1ncn2[C@@H]1O[C@H](CO)C[C@H]1O	inactive
c1nc2nc(Nc3ccc(N4CCOCC4)cc3)nc(NC3CCCCC3)c2[nH]1	inconclusive: 0.841 µM [cytotoxic, full curve]
Cn1cnc2c(F)c(Nc3ccc(Br)cc3Cl)c(C(=O)NOCCO)cc21	inactive
Cn1c(=O)c(F)c(Nc2ccc(I)cc2F)c2c(=O)n(CC(O)CO)cnc21 (stereo unspecified)	inconclusive: 48.5 µM [cytotoxic, partial curve, poor fit]
CN(C)CC/C=C1\c2ccccc2COc2ccccc21	inactive
COc1ccccc1N1CCN(CC(O)COc2cccc3ccccc23)CC1 (stereo unspecified)	inactive
Nc1nc(Cl)nc2c1ncn2C1OC(CO)C(O)C1F (stereo unspecified)	active: 2.17 µM
CN(C)C(CCOc1cccc2ccccc12)c1ccccc1 (stereo unspecified)	inactive
NC(=O)c1cnc(-c2ccc(C3(N)CCC3)cc2)c(-c2ccccc2)c1	active: 30.6 µM
COc1cc(Nc2ncc(F)c(Nc3ccc4c(n3)N(COP(=O)(O)O)C(=O)C(C)(C)O4)n2)cc(OC)c1OC	inconclusive: 12.2 µM [cytotoxic, full curve, poor fit]
O=C1NC(=O)C(c2cnc3ccccn23)=C1c1cn2c3c(cccc13)CN(C(=O)N1CCOCC1)CC2	inconclusive: 9.68 µM [cytotoxic, full curve, poor fit]
Cc1ccc(C(=O)Nc2ccc(Oc3cc4cnn(C)c4cc3-c3cn[nH]c3)c(F)c2)c(=O)n1-c1ccc(F)cc1	inconclusive: 8.63 µM [cytotoxic, full curve]

Compounds shown so far that contain two or more sulfur atoms:
SMILES	Potency
OCc1ccc(-c2ccc(-c3ccc(CO)s3)o2)s1	inactive
CN(C)CCC(CSc1ccccc1)Nc1ccc(S(=O)(=O)NC(=O)c2ccc(N3CCN(Cc4ccccc4-c4ccc(Cl)cc4)CC3)cc2)cc1[N+](=O)[O-] (stereo unspecified)	inconclusive: 17.2 µM [cytotoxic, partial curve]
